No constants are given. Whether binding was seen depends on the method and setting. Binding seen in cells or lysates may run through a third protein. Some binding calls cover weakened binding; strength is not graded here. For part of these data: Where a sequence is shown, tags or fusion partners need not be part of it.
Legend:
[1] = target: HSP90α (UniProt P07900); test: co-IP; IP with the HSP90α antibody, Western blot; cells not told in the text (Supplementary Fig. S4C and D)
[2] = target: PINK1 (PTEN-induced kinase 1), endogenous in HCT116 cells (human (endogenous in HCT116)) (UniProt Q9BXM7); test: co-IP; IP with a PINK1 antibody from cytosolic and mitochondrial fractions of HCT116 cells, Western blot; NETN buffer (50 mM Tris-HCl pH 8.0, 150 mM NaCl, 1% NP-40), 3 h at 4°C
[3] = target: PINK1 (PTEN-induced kinase 1), endogenous in HCT116 cells (human (endogenous in HCT116)) (UniProt Q9BXM7); test: co-IP; co-IP of PINK1 with ATR in whole cell extracts of HCT116 cells, with control siRNA, siATR or the ATR inhibitor VE821; NETN buffer, 3 h at 4°C
[4] = target: ATR, endogenous in N2A cells (mouse (endogenous in N2A)) (UniProt Q9JKK8); test: co-IP + native gel or EMSA; 1D BN-PAGE of lysate of mitochondria isolated from N2A cells (1% Triton X-100 sample buffer) and IP with a rabbit anti-ATR antibody, IP samples heated at 99°C for 10 min; blots for ATR, TOM22, PINK1
[5] = target: ATR, endogenous in U2OS cells (human (endogenous in U2OS)) (UniProt Q13535); test: proximity ligation; endogenous proteins in U2OS cells (shNC or shATR), Duolink In Situ Red kit, co-staining with MitoTracker; IgG controls
[6] = target: FLAG-ATR-WT (HEK293T) (UniProt Q13535); test: co-IP; IP with the FLAG antibody from lysates of transfected HEK293T cells, Western blot; NETN buffer, 3 h at 4°C
[7] = target: FLAG-ATR-WT (U2OS) (UniProt Q13535); test: proximity ligation; U2OS cells co-transfected with FLAG-ATR-WT and GFP-PINK1-FL or GFP-PINK1-D3, Duolink In Situ Red kit, MitoTracker staining
[8] = target: FLAG-ATR-WT (HEK293T) (UniProt Q13535); test: co-IP; IP with the FLAG antibody from lysates of transfected HEK293T cells, Western blot; NETN buffer, 3 h at 4°C; remark: listed apart in the source
[9] = target: FLAG-ATR-WT (HEK293T) (UniProt Q13535); test: co-IP; IP with the FLAG antibody from cells transfected with FLAG-ATR and HA-TIM23 (HEK293T in the text, HCT116 in the legend), Western blot; NETN buffer, 3 h at 4°C

The chains behind the UniProt entries cited, without tags or fusion partners. Where a name states a change or a piece, a line headed by the entry shows the natural chain unless it says otherwise. Residues count along the entry.
UniProt Q9BXM7, residues 78-581: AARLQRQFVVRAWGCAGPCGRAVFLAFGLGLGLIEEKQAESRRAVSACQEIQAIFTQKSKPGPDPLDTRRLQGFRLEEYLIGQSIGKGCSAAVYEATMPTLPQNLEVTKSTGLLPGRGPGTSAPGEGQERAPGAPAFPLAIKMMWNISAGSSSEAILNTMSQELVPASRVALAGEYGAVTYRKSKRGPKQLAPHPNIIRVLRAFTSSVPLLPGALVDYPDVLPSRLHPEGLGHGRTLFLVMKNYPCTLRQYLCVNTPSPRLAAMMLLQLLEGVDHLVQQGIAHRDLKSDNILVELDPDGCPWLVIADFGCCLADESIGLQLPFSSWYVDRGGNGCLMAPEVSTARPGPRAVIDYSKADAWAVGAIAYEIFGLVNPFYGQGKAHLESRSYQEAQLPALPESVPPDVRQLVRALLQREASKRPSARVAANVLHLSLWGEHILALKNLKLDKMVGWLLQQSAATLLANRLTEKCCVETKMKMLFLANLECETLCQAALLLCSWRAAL
UniProt Q9JKK8: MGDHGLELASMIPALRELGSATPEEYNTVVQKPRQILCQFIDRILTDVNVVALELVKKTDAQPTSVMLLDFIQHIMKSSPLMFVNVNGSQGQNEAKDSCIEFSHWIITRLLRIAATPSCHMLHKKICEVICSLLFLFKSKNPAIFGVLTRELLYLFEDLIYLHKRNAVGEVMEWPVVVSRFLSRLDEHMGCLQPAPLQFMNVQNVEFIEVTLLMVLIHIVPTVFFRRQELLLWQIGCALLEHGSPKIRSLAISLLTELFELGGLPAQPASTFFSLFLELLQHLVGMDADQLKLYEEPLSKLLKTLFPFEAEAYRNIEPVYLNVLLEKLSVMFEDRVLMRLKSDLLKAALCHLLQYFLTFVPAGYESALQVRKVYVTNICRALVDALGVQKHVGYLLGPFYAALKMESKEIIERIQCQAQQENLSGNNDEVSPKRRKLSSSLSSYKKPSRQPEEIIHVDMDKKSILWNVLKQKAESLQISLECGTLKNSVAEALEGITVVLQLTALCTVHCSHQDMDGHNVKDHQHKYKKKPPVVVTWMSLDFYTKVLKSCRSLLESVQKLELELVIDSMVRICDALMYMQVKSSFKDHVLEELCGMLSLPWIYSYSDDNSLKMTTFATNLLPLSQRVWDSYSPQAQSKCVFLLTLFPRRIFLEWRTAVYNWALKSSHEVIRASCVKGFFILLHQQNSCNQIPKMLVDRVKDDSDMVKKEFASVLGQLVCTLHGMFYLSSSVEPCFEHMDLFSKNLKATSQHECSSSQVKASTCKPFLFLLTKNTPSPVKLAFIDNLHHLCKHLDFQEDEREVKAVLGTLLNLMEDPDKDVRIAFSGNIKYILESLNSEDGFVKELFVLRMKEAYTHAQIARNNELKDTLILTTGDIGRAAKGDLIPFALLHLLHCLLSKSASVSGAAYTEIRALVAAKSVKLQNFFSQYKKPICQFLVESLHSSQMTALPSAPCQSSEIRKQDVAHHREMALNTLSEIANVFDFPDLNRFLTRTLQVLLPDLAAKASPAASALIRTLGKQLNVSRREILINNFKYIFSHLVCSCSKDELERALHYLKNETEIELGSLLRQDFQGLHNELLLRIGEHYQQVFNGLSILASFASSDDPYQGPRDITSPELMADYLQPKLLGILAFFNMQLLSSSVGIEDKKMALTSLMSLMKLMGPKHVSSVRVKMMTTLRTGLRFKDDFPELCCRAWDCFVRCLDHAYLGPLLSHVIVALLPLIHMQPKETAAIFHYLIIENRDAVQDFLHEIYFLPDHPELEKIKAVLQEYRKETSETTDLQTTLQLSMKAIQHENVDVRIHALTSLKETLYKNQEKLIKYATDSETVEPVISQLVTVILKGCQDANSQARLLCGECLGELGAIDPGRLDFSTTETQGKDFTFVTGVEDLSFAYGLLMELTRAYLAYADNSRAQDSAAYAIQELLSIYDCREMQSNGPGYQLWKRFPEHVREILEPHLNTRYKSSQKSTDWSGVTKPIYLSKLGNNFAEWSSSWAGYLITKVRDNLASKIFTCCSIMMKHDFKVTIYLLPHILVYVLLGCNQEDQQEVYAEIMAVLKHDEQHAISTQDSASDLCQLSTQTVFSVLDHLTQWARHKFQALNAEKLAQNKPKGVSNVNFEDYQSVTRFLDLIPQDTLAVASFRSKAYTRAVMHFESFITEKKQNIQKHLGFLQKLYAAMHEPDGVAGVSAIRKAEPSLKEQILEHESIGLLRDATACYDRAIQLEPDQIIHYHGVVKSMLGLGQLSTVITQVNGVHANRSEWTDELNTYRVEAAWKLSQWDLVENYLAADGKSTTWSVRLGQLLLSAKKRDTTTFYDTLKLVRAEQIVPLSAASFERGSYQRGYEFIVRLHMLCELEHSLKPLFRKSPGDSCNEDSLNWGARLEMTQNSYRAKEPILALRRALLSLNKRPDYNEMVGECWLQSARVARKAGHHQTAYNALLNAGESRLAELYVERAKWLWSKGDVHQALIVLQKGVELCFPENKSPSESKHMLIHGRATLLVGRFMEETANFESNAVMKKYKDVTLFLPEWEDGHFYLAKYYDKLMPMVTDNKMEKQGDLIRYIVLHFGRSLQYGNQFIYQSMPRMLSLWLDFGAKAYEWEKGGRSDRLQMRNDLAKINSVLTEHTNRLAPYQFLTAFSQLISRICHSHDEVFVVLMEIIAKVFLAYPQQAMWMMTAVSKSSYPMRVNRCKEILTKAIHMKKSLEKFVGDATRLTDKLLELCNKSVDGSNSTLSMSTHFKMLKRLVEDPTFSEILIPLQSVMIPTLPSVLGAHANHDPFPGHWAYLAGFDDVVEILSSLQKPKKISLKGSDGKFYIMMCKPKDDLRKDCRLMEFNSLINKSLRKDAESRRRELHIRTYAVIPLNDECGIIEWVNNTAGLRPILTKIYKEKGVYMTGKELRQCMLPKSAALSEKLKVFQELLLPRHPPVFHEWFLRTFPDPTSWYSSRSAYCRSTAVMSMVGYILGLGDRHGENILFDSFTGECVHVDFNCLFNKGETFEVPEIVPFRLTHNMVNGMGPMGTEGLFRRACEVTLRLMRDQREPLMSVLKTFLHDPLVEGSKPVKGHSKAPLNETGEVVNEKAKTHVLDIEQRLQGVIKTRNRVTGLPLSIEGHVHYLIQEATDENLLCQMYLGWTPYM
UniProt Q13535: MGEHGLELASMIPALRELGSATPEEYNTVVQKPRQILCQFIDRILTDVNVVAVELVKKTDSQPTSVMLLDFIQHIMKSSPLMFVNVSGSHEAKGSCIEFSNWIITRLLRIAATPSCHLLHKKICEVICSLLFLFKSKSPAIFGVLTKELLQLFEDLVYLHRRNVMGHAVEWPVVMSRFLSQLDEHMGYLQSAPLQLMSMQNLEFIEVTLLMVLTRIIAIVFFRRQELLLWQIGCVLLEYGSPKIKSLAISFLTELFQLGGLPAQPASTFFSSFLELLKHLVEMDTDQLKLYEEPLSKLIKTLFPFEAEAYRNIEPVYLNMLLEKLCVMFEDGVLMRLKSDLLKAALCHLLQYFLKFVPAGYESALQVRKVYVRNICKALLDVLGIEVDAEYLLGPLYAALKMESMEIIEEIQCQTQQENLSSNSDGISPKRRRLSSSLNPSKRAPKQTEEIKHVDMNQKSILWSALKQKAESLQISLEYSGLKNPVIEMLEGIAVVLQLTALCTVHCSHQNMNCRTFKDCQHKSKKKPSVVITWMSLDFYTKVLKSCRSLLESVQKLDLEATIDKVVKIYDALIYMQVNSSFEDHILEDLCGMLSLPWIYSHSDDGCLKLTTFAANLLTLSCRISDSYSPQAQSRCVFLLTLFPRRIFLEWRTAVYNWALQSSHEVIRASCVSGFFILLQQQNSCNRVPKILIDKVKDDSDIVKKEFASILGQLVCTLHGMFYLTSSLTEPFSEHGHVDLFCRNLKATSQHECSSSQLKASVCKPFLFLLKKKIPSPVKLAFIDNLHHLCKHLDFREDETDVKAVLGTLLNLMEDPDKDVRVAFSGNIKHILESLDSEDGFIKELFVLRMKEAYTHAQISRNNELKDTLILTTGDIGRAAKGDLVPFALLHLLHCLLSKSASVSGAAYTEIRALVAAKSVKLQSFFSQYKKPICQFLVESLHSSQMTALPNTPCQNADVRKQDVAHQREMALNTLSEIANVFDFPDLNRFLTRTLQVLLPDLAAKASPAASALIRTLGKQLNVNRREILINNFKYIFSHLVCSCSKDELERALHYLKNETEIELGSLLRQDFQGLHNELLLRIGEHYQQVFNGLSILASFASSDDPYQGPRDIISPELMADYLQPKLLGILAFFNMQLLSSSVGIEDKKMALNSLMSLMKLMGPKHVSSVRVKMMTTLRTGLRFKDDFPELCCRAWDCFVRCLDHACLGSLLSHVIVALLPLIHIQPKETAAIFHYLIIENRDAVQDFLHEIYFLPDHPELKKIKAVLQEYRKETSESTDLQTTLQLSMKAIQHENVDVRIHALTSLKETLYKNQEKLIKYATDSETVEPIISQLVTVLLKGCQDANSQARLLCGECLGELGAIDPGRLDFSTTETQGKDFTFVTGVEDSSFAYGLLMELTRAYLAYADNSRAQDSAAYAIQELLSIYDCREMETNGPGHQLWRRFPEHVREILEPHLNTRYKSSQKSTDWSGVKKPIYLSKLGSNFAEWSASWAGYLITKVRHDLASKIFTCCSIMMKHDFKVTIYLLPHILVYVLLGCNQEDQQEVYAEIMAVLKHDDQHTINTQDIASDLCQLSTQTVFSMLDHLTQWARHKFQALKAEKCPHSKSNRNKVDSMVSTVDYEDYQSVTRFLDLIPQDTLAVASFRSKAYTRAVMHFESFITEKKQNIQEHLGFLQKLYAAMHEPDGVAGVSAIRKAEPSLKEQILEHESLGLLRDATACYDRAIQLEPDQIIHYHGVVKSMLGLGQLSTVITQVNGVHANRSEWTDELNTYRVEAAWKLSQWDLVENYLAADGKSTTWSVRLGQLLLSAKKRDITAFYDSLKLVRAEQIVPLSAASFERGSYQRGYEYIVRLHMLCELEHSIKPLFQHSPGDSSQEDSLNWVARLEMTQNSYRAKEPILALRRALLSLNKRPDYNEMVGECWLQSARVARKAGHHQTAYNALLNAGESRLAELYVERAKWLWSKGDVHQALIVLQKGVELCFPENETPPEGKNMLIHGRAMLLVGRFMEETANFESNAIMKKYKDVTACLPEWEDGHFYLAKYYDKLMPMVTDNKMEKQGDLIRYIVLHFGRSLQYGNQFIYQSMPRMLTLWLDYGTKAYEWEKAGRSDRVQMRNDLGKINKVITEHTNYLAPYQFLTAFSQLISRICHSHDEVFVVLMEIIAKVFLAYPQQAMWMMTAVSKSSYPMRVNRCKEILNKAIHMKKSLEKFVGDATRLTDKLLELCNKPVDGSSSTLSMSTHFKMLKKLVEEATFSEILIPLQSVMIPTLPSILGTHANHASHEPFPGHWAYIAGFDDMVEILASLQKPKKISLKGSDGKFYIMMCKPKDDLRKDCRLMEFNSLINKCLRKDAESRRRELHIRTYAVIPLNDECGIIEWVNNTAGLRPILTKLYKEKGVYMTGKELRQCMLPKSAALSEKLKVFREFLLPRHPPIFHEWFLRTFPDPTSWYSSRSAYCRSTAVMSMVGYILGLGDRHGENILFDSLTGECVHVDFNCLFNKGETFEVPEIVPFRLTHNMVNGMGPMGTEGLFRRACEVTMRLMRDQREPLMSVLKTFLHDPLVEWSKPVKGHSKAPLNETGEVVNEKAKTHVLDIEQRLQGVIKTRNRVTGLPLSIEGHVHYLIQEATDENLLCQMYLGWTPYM
UniProt Q99MQ3: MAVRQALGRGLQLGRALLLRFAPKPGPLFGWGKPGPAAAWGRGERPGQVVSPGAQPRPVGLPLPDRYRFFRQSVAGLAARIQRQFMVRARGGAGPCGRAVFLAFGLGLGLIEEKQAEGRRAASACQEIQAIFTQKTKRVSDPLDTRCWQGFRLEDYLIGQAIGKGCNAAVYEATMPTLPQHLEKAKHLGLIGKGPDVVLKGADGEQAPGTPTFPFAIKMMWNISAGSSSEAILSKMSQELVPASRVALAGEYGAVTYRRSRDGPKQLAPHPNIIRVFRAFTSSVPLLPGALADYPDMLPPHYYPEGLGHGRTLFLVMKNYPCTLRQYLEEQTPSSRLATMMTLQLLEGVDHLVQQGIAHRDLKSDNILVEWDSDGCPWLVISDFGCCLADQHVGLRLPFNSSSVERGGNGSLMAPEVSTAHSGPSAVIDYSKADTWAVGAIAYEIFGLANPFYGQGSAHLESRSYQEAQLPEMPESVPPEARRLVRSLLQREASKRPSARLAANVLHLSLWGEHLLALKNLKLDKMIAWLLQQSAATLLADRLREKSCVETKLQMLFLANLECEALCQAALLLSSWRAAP

Molecule: ATR in the HSP90α co-IP (from UniProt Q13535 1-2644)
- binding [1]: binds

Molecule: ATR (ataxia-telangiectasia and Rad3-related), endogenous in HCT116 cells (from UniProt Q13535 1-2644)
- binding [2]: binds
- binding [3]: binds

Molecule: PINK1, endogenous in N2A cells (from UniProt Q99MQ3 78-580)
- binding [4]: binds

Molecule: PINK1, endogenous in U2OS cells (from UniProt Q9BXM7 78-581)
- binding [5]: binds

Molecule: GFP-PINK1-FL (HEK293T) (from UniProt Q9BXM7 78-581)
- binding [6]: binds

Molecule: GFP-PINK1-FL (U2OS) (from UniProt Q9BXM7 78-581)
- binding [7]: binds

B1: TOM40, endogenous in U2OS cells (protein, UniProt O96008 1-361)
chain: MGNVLAASSPPAGPPPPPAPALVGLPPPPPSPPGFTLPPLGGSLGAGTSTSRSSERTPGAATASASGAAEDGACGCLPNPGTFEECHRKCKELFPIQMEGVKLTVNKGLSNHFQVNHTVALSTIGESNYHFGVTYVGTKQLSPTEAFPVLVGDMDNSGSLNAQVIHQLGPGLRSKMAIQTQQSKFVNWQVDGEYRGSDFTAAVTLGNPDVLVGSGILVAHYLQSITPCLALGGELVYHRRPGEEGTVMSLAGKYTLNNWLATVTLGQAGMHATYYHKASDQLQVGVEFEASTRMQDTSVSFGYQLDLPKANLLFKGSVDSNWIVGATLEKKLPPLPLTLALGAFLNHRKNKFQCGFGLTIG
- binding [5]: binds

B2: TIM23, endogenous in U2OS cells (protein, UniProt O14925 1-209)
chain: MEGGGGSGNKTTGGLAGFFGAGGAGYSHADLAGVPLTGMNPLSPYLNVDPRYLVQDTDEFILPTGANKTRGRFELAFFTIGGCCMTGAAFGAMNGLRLGLKETQNMAWSKPRNVQILNMVTRQGALWANTLGSLALLYSAFGVIIEKTRGAEDDLNTVAAGTMTGMLYKCTGGLRGIARGGLTGLTLTSLYALYNNWEHMKGSLLQQSL
- binding [5]: binds

B3: TOM22, endogenous in N2A cells (protein, UniProt Q9CPQ3 1-142)
chain: MAAAVAAAGAGEPLSPEELLPKAEAEKAEEELEEDDDDELDETLSERLWGLTEMFPERVRSAAGATFDLSLFVAQKMYRFSRAALWIGTTSFMILVLPVVFETEKLQMEQQQQLQQRQILLGPNTGLSGGMPGALPPLPGKM
- binding [4]: binds

B4: HA-TOM40 (protein, UniProt O96008 1-361)
chain: B1 chain
- binding [8]: binds

B5: HA-TIM23 (protein, UniProt O14925 1-209)
chain: B2 chain
- binding [9]: binds

Reference: paper PMC11920799
